# In all, about 59,000 compounds went through this assay and about 35 (0.06%) were called active. Inconclusive results, whose numbers are uncertain, are shown with a selection of clear calls. Cut-off read from the data, not from the text of the source: active = max dye-equivalent concentration above about 10 nM; inconclusive = between about 1.1 nM and that limit; inactive = weaker than that.
# Experiment: qHTS Assay for Spectroscopic Profiling in Texas Red Spectral Region
# Conditions: Compound fluorescence, Texas Red channel, 547/618 nm; active compounds read high
# Summary of the method: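 Texas Red-region profiling: compounds in 100 mM Tris pH 8.0 were read at 547/618 nm after 15 min at room temperature. Intensities were normalized against a six-point Texas Red standard series to give dye-equivalent concentration.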
row,Structure (SMILES),max dye-equivalent concentration
1,CCCn1c(SCC(=O)N2CCCc3ccccc32)nnc1-c1ccco1,inconclusive: 1.1 nM
2,COc1ccc2[nH]c(=O)c(CN(Cc3cccs3)Cc3nnnn3C(C)(C)C)cc2c1,inconclusive: 1.2 nM
3,CC(NC(=O)Cc1cccs1)C(c1cccs1)N1CCOCC1 (configuration not stated),inconclusive: 1.3 nM
4,CCOC(=O)c1ccc(CNC(=O)C(Cc2c[nH]c3ccccc23)NC(C)=O)o1 (configuration not stated),inconclusive: 1.8 nM
5,O=C(O)CNC1=NCCCCC1,inconclusive: 2.3 nM
6,Cc1ccc(-n2ncc(C#N)c2/N=C/N(C)C)cc1,inconclusive: 1.6 nM
7,COc1ccc(CNC(=O)CN(C(=O)CCC(=O)Nc2ccccn2)c2ccccc2OC)cc1,inconclusive: 1.3 nM
8,CCN(CC)c1ccc(NC(=O)c2cccc(C)c2OC)c(C)c1,inconclusive: 1.6 nM
9,Cc1nnc(N(CCC#N)CCC#N)s1,inconclusive: 2.1 nM
10,Cc1ccc(Cn2cccc(NC(=O)c3ccco3)c2=O)cc1,inconclusive: 1.1 nM
11,O=C(Cn1[nH]c(=O)c2ccccc2c1=O)Nc1ccc2c(c1)CCC2,inconclusive: 1.5 nM
12,O=S(=O)(NCC(c1cccnc1)N1CCN(c2ccccc2)CC1)c1cccs1 (configuration not stated),inconclusive: 1.8 nM
13,CCCCC(C(=O)NCCC(C)C)N(CCCN1CCOCC1)C(=O)c1snc(C(N)=O)c1N (configuration not stated),inconclusive: 1.2 nM
14,COc1ccc(CNC(=O)c2cccc3c2C(=O)N(Cc2cccnc2)C3)cc1,inconclusive: 1.3 nM
15,COCCCNC(=O)c1oc2ccc(S(=O)(=O)N(C)C3CCCCC3)cc2c1C,inconclusive: 1.3 nM
16,COc1cc2c(cc1NC(=O)C1CCCO1)oc1ccccc12 (configuration not stated),inconclusive: 1.1 nM
17,CCCCC(=O)Nc1ccc(NC(=O)c2cccnc2)cn1,inconclusive: 1.3 nM
18,O=C(CSc1nnc(-c2cccnc2)o1)OC1CCCCC1,inconclusive: 2 nM
19,CSc1ncccc1C(=O)OCC(=O)N1CCOCC1,inactive

# Random excerpt: three entries already listed.
row,Structure (SMILES),max dye-equivalent concentration
18,O=C(CSc1nnc(-c2cccnc2)o1)OC1CCCCC1,inconclusive: 2 nM
1,CCCn1c(SCC(=O)N2CCCc3ccccc32)nnc1-c1ccco1,inconclusive: 1.1 nM
6,Cc1ccc(-n2ncc(C#N)c2/N=C/N(C)C)cc1,inconclusive: 1.6 nM

# (further entries)

row,Structure (SMILES),max dye-equivalent concentration
1,C=CCN1CCc2c(cc(O)c(O)c2Br)[C@H](c2ccccc2)C1,inactive
2,O=C(NCc1ccco1)c1ccc(CS(=O)(=O)Cc2ccc(F)cc2)o1,inconclusive: 1.5 nM
3,CC(C)=CC(=O)OCC(=O)NC(=O)NC(C)(C)C,inconclusive: 1.3 nM
4,Cc1cc(=O)oc(C)c1C(=O)NCCC(C)C,inconclusive: 1.2 nM
5,CC(Sc1nc(N2CCOCC2)nc(N2CCOCC2)n1)C(=O)Nc1ccccc1 (configuration not stated),inconclusive: 1.2 nM
6,CC(C)CCNC(=O)NC(=O)CSc1nnc(COc2ccccc2Cl)o1,inconclusive: 1.1 nM
7,COc1ccc(-c2nnc3ccc(SCC(=O)NCc4ccco4)nn23)cc1,inconclusive: 1.3 nM
8,CC(C(=O)NC1CCCCCC1)N(c1ccccc1)S(C)(=O)=O (configuration not stated),inconclusive: 1.6 nM
9,Cc1cccc(C)c1NS(=O)(=O)c1c(C)[nH]c(=O)[nH]c1=O,inconclusive: 1.3 nM
10,N#Cc1c(-c2ccco2)cc(-c2cccnc2)nc1N,inconclusive: 1.1 nM
11,Clc1ccc(C2=Nn3c(nnc3-c3n[nH]c4c3CCC4)SC2)cc1,inconclusive: 1.1 nM
12,COc1cccc(-c2csc(N3CCN(Cc4ccccc4)CC3)n2)c1,inconclusive: 1.8 nM
13,COC(=O)[C@H](Cc1ccccc1)NC(=O)N1CCCCC1C (some centres not stated),inconclusive: 1.2 nM
14,CCCCC(=O)Nc1ccc(NC(=O)C2CC2)nc1,inconclusive: 2 nM
15,NC(=O)c1ccc(-n2nnnc2Oc2ccccc2)cc1,inconclusive: 1.1 nM
16,CCn1c(CNc2nc(-c3ccccc3)cs2)nnc1SCC(=O)NCc1ccco1,inconclusive: 1.1 nM
17,Cc1noc(NS(=O)(=O)c2ccc(N3Cc4ccccc4C3=O)cc2)c1C,inconclusive: 1.9 nM
18,CCN(CC)C(=O)c1cc(-c2ccccc2OC)on1,inconclusive: 1.3 nM
19,Cc1nn(C(=O)c2ccco2)c(C)c1CN1C(=O)c2ccccc2C1=O,inconclusive: 1.2 nM

row,Structure (SMILES),max dye-equivalent concentration
1,Cn1c(Cn2nnc3ccccc32)nnc1SCC(N)=O,inconclusive: 1.8 nM
2,c1ccc(-c2nnc3sc(-c4ccncc4)nn23)cc1,inconclusive: 1.8 nM
3,Cc1c(C(=O)N2CCN(c3ncccn3)CC2)sc2nc3n(c(=O)c12)CCCC3,inconclusive: 1.1 nM
4,Cc1cccc(NC(=O)Cn2cnc3ccc(S(=O)(=O)N4CCC(C)CC4)cc3c2=O)n1,inconclusive: 1.1 nM
5,O=P(O)(O)CP(=O)(O)O,inconclusive: 1.3 nM
6,CCOC(=O)Nc1sc2c(c1C(=O)OCC)CCC2,inconclusive: 1.2 nM
7,C=CCNc1nnc(SCC(=O)N2CCCCC2)c2ccccc12,inconclusive: 1.3 nM
8,O=C(N1CCOCC1)N1CCN(c2nc(-c3ccccc3)cs2)CC1,inconclusive: 1.2 nM
9,O=C(NCc1nc(-c2ccccc2)no1)c1ccc(Br)o1,inactive
10,CCc1nc(N2CCOCC2)c(C#N)c2c1CCCC2,inconclusive: 1.2 nM
11,NC(N)=NC(N)=Nc1cccc(Cl)c1,inconclusive: 1.2 nM
12,N#CC1=C(N)N(c2ccccc2)C(c2ccccc2)C1(C#N)C#N (configuration not stated),inactive
13,O=C1c2ccccc2NC2CCCCC12 (configuration not stated),inconclusive: 1.1 nM
14,N#CCCn1nc(-c2ccccc2)cc1Nc1ccccc1NC(=O)c1cccs1,inconclusive: 1.4 nM
15,COc1cccc(NC(=O)N2CCCC2C(=O)NC2CC2)c1 (configuration not stated),inconclusive: 1.6 nM
16,C[C@H]1CC(C)(C)C[C@@](OCCN2CCCCC2)(c2ccccc2)C1,inactive
17,O=C(NCc1ccco1)C(C(=O)c1ccccc1)n1ccccc1=O (configuration not stated),inconclusive: 1.3 nM
18,COc1ccccc1CNc1ccnc(-c2ccccc2OC)n1,inconclusive: 1.1 nM
19,CCOC(=O)C1=C(CSc2nc(-c3ccncc3)ccc2C#N)OC(N)=C(C#N)C1c1cccnc1 (configuration not stated),inconclusive: 1.6 nM
